# Experimental data from the supplement of paper PMC11006884.
# Sequences of proteins named here, by UniProt entry; tags and fusion partners are left off. A change or cut given only in a name is not applied to a line headed by its entry.
# UniProt P14866: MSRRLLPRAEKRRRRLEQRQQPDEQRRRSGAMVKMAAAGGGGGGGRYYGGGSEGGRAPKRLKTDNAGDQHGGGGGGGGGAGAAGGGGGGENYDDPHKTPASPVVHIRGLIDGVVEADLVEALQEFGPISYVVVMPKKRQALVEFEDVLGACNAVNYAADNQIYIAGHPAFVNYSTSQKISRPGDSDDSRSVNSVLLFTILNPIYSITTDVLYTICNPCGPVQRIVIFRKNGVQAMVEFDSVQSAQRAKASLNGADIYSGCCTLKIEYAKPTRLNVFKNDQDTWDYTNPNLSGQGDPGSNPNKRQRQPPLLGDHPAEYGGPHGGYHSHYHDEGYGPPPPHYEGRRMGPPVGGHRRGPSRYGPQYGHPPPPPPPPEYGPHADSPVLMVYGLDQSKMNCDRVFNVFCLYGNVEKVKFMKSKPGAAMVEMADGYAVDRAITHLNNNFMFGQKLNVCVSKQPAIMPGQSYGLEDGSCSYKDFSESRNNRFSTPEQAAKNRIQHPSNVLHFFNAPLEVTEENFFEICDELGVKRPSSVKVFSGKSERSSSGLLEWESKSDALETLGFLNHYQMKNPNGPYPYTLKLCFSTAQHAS
# UniProt P13489: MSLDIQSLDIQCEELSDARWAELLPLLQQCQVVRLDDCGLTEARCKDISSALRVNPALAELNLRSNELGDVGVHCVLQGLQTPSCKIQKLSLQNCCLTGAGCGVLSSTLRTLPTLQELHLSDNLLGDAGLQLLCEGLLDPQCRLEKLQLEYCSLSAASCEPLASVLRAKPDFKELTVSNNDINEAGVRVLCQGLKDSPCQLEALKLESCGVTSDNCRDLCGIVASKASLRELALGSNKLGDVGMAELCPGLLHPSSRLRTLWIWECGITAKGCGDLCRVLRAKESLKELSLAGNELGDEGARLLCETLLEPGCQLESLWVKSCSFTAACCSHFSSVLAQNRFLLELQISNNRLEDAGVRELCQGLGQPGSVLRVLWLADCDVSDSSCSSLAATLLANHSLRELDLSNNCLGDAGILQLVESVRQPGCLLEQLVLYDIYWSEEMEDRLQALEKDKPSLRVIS
# UniProt P11802: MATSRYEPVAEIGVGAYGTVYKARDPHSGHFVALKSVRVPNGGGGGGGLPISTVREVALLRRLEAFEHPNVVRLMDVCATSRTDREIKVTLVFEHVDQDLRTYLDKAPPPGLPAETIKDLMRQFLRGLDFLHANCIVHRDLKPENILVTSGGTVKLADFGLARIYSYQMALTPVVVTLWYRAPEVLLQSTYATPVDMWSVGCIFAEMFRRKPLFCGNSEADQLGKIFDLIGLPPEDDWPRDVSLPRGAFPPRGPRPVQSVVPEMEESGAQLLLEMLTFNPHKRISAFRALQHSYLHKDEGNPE
# UniProt P14618, whole entry, looked up: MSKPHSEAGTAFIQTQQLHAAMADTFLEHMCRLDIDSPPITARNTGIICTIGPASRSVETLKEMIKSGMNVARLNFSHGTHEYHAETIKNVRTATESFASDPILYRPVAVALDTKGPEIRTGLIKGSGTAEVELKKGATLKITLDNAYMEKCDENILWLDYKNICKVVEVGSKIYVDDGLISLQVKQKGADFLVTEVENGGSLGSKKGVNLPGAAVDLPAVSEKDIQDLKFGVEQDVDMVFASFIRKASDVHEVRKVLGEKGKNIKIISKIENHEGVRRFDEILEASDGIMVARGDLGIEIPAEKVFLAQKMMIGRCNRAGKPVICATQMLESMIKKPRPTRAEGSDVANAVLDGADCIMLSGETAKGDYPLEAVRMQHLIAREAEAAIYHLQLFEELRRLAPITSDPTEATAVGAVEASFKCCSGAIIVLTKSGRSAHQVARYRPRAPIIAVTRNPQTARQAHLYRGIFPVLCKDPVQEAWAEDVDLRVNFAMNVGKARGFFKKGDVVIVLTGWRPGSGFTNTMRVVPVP
# UniProt P10398: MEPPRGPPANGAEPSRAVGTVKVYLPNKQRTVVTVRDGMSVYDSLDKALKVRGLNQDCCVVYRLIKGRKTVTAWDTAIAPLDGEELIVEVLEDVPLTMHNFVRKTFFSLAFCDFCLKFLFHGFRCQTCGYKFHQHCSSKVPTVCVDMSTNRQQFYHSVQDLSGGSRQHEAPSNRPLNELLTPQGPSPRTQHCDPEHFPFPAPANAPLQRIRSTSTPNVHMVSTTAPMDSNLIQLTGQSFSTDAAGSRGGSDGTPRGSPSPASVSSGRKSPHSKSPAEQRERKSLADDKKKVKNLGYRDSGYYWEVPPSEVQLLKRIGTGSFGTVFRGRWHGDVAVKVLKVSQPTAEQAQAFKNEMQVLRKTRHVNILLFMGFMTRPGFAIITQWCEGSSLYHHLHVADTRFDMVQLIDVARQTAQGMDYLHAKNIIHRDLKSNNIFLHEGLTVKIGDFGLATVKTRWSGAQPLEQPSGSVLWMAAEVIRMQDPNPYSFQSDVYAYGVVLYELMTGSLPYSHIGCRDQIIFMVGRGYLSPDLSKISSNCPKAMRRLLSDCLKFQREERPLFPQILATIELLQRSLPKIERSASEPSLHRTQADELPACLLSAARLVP
# UniProt P15924: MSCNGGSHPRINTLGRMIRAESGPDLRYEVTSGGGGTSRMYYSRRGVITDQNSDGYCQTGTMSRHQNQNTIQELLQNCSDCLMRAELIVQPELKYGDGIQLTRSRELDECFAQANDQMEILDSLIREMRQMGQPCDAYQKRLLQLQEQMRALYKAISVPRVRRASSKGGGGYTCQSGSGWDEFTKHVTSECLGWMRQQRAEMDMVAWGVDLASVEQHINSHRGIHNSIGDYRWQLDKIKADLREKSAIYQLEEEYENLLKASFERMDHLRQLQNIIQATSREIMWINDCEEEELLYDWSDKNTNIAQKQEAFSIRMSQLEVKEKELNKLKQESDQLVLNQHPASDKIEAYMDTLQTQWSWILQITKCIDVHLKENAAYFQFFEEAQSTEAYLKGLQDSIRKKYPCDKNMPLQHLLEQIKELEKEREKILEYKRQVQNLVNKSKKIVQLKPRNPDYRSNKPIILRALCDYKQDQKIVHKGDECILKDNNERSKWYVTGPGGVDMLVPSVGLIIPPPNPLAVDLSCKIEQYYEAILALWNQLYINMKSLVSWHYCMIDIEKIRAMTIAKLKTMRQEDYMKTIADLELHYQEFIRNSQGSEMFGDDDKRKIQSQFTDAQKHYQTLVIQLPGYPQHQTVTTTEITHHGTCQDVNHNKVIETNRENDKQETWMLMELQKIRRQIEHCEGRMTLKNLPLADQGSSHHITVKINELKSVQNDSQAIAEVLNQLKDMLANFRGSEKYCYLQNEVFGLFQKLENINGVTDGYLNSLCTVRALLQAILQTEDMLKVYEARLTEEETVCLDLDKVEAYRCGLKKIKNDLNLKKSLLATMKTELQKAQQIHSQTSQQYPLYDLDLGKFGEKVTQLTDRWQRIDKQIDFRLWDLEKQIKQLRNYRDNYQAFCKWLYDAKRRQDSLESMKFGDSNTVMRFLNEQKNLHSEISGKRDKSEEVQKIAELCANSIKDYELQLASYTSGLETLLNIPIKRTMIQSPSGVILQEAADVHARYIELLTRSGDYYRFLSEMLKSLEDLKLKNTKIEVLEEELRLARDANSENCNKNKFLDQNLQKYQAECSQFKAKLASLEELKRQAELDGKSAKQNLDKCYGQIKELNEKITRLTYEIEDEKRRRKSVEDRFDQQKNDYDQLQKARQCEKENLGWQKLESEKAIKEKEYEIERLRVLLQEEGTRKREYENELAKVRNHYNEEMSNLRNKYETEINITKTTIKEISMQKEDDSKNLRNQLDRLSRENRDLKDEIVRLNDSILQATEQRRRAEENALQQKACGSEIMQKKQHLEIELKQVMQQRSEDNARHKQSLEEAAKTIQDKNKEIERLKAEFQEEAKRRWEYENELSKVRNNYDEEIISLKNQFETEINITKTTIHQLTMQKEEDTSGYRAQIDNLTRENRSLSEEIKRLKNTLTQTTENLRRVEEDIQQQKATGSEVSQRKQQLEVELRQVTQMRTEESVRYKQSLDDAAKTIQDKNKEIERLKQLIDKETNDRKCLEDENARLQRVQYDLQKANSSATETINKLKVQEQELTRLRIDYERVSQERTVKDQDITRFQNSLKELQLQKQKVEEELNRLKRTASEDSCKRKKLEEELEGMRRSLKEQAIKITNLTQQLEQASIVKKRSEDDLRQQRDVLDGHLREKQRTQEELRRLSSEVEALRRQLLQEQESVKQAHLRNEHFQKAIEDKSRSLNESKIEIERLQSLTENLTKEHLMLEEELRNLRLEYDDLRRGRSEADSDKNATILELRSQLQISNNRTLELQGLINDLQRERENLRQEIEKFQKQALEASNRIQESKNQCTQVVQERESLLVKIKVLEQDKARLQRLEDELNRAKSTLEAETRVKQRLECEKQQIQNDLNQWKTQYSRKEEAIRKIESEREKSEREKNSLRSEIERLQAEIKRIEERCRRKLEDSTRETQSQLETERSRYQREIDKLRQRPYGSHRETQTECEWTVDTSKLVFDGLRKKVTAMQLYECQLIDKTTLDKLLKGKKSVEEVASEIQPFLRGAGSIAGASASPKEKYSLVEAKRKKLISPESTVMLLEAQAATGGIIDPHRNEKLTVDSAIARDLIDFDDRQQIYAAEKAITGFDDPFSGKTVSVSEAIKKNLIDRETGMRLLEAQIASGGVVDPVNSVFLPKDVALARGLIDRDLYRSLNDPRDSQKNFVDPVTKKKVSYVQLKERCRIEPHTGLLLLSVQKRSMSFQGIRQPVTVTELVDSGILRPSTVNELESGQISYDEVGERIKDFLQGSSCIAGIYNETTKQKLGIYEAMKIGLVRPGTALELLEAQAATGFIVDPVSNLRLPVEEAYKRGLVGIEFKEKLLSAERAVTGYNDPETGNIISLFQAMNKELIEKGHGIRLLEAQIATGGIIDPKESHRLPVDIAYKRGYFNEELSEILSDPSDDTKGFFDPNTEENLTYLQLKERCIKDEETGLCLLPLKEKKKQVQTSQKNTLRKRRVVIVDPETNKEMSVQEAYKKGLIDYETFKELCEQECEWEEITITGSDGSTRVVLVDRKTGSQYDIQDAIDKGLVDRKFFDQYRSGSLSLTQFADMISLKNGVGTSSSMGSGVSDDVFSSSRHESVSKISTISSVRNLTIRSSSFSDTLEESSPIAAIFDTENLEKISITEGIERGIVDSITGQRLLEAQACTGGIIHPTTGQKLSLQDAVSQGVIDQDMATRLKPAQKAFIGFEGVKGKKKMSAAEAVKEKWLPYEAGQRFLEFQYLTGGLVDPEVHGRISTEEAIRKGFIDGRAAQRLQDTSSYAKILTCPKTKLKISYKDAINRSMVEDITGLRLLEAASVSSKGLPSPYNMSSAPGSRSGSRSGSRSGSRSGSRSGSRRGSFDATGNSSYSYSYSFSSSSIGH
# UniProt P14923: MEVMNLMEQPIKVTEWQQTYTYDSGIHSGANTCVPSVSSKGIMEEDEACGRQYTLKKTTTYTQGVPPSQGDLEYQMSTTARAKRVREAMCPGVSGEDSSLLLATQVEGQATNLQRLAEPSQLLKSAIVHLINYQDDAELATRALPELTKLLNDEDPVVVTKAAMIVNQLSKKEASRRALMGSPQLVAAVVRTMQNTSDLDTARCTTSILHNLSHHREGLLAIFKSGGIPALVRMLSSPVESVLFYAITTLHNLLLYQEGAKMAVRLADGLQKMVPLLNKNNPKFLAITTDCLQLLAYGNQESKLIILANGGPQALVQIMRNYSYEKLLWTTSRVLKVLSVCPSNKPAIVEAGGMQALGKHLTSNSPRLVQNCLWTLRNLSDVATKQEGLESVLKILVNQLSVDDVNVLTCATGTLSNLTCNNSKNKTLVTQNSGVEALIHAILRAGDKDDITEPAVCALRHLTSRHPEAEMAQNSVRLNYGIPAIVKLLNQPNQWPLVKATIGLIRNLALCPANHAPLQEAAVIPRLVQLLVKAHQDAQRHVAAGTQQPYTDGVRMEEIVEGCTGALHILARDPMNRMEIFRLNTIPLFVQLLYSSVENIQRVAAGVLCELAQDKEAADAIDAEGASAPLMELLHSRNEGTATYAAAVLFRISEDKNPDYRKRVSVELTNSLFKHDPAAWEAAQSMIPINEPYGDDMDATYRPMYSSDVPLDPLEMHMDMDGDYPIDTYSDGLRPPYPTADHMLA
# UniProt P11310: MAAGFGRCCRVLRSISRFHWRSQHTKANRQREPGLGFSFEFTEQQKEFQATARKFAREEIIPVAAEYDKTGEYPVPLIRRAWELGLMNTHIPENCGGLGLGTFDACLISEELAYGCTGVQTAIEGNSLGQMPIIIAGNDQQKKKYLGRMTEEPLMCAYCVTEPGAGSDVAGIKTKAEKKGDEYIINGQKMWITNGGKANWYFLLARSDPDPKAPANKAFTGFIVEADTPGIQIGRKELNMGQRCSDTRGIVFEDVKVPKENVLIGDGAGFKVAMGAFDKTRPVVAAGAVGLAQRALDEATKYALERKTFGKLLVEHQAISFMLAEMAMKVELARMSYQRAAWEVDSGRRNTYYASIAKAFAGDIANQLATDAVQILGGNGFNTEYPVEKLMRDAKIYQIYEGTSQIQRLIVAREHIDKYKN
# The list shows a part of the results, in another mix than the full data.
# Compound: COC(=O)C#Cc1ccccc1 [methyl 3-phenylpropiolate]
# Experiment: log2 ratio of iodoacetamide-alkyne labeling of the cysteine site, DMSO over compound (competition); higher = stronger covalent engagement of the cysteine by the compound, active = 1 or more
# Details: 500 µM; treatment time 1 h; system: HEK293T cell lysate
# Method in brief: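 For each cysteine, the log2 competition ratio is mean control-channel reporter intensity over mean compound-channel reporter intensity. HEK293T lysate (2 mg/mL) was exposed to vehicle or electrophile (500 µM, 1 h, ambient temperature), labelled with iodoacetamide alkyne (1 h), clicked to sCIP-TMT reagents, digested overnight with trypsin at 37 °C, streptavidin-enriched and analysed by Orbitrap Eclipse LC-MS/MS with FAIMS and FragPipe. Cysteines quantified in only one of three replicates, each with duplicate channels, were excluded.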
row,Target,log2 ratio of iodoacetamide-alkyne labeling
1,CTSB C319 (UniProt P07858),inactive: 0.512
2,HNRNPL C521 (UniProt P14866),inactive: -0.206
3,PARP1 C429 (UniProt P09874),inactive: 0.192
4,RNH1 C12 (UniProt P13489),inactive: 0.147
5,IGF2R C2232 (UniProt P11717),active: 1.08
6,CDK4 C135 (UniProt P11802),inactive: 0.117
7,UniProt P14618_C31,inactive: -0.0751
8,GYS1 C564 (UniProt P13807),inactive: 0.416
9,ARAF C192 (UniProt P10398),inactive: 0.205
10,DSP C110 (UniProt P15924),inactive: -0.0621
11,UniProt P17812_C216,inactive: -0.127
12,PLS3 C566 (UniProt P13797),inactive: 0.132
13,CBR1 C26 (UniProt P16152),inactive: -0.382
14,PFKM C709 (UniProt P08237),inactive: 0.13
15,HNRNPL C151 (UniProt P14866),inactive: 0.0208
16,DBT C333 (UniProt P11182),inactive: -0.027
17,RNH1 C30 (UniProt P13489),inactive: 0.06
18,PRKAR1A C18 (UniProt P10644),inactive: 0.653
19,JUP C511 (UniProt P14923),inactive: 0.463
20,HNRNPA1 C175 (UniProt P09651),inactive: -0.128
21,FH C333 (UniProt P07954),inactive: 0.338
22,ACADM C156 (UniProt P11310),inactive: 0.666

# A second format for some results above.
row	Target	log2 ratio of iodoacetamide-alkyne labeling
8	GYS1 C564 (UniProt P13807)	inactive: 0.416
22	ACADM C156 (UniProt P11310)	inactive: 0.666
